# Test results published in the supplement of paper PMC10032668.
# Amino acid sequences for entries named in this document (tags omitted).
# CHMP2B, Q9UQN3, UniProt Q9UQN3, whole entry: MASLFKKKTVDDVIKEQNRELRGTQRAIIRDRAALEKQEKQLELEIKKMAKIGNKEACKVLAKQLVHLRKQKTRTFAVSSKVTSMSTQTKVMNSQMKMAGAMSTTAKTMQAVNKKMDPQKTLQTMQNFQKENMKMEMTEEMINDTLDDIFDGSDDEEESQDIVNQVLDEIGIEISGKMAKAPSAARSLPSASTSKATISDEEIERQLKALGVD
# COA4, Q9NYJ1, UniProt Q9NYJ1, whole entry: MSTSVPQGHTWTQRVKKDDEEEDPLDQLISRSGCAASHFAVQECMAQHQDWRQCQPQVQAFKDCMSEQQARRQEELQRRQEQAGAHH
# CRIPT, Q9P021, UniProt Q9P021, whole entry: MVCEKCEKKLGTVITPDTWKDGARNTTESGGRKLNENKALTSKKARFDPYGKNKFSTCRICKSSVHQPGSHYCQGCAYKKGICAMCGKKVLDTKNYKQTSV
# MORF4L2, Q15014, UniProt Q15014, whole entry: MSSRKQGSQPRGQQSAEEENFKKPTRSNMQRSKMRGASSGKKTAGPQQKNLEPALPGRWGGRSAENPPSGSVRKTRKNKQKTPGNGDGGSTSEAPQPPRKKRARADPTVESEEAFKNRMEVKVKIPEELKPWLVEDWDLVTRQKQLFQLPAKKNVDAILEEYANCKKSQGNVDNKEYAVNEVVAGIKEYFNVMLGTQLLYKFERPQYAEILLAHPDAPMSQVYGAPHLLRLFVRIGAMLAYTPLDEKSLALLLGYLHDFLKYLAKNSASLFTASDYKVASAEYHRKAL
# MPG, P29372, UniProt P29372, whole entry: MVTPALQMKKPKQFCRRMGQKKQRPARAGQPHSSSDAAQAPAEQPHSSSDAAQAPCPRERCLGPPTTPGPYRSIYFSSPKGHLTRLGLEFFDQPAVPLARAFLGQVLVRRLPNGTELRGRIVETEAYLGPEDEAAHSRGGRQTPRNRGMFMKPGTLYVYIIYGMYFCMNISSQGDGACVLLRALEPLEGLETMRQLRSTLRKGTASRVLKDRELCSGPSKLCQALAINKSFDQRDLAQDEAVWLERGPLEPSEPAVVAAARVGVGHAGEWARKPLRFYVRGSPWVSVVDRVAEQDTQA
# PIN4, Q9Y237, UniProt Q9Y237, whole entry: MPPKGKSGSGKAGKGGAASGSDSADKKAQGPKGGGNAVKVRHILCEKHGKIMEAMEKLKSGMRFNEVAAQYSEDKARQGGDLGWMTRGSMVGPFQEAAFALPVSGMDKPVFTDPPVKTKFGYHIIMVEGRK
# TMA7, Q9Y2S6, UniProt Q9Y2S6, whole entry: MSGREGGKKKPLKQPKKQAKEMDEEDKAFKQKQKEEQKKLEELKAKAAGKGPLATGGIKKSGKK
# ± gives the standard deviation of the averaged measurements. This is one part of the list. Only hits are listed; about a third recur on repeated control peptides.
# Legend:
# Assay in all cases: PRISMA enrichment of interactor (LFQ) in peptide spot vs all other peptide spots (log2 fold change); higher = stronger / more specific binding of the interactor to the peptide
# ALKBH2, Q6NS38 = biological target: ALKBH2, Q6NS38
# Experimental: (§1)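 PRISMA: 221 full-length sORF-encoded peptides (3-15 aa), plus SOS1/GLUT1 control peptides, were spot-synthesized on cellulose membranes in triplicate. Membranes were incubated with HEK293T lysate, and bound proteins were identified by LC-MS/MS with LFQ. Enrichment is the log2 fold change versus all other peptide spots; only significant interactors are listed (cutoff c=6, x0=2.8).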
# ALYREF, Q86V81 = biological target: ALYREF, Q86V81
# Experimental: as §1
# BOLA3, Q53S33 = biological target: BOLA3, Q53S33
# Experimental: as §1
# C12orf65, Q9H3J6 = biological target: C12orf65, Q9H3J6
# Experimental: as §1
# C19orf53, Q9UNZ5 = biological target: C19orf53, Q9UNZ5
# Experimental: as §1
# C1orf131, Q8NDD1 = biological target: C1orf131, Q8NDD1
# Experimental: as §1
# CCDC137, Q6PK04 = biological target: CCDC137, Q6PK04
# Experimental: as §1
# CCDC58, Q4VC31 = biological target: CCDC58, Q4VC31
# Experimental: as §1
# CCDC59, Q9P031 = biological target: CCDC59, Q9P031
# Experimental: as §1
# CHCHD7, Q9BUK0 = biological target: CHCHD7, Q9BUK0
# Experimental: as §1
# CHMP2B, Q9UQN3 = biological target: CHMP2B, Q9UQN3
# Experimental: as §1
# CHTOP, Q9Y3Y2 = biological target: CHTOP, Q9Y3Y2
# Experimental: as §1
# CMC2, Q9NRP2 = biological target: CMC2, Q9NRP2
# Experimental: as §1
# COA4, Q9NYJ1 = biological target: COA4, Q9NYJ1
# Experimental: as §1
# CRIPT, Q9P021 = biological target: CRIPT, Q9P021
# Experimental: as §1
# CSNK1E, P49674 = biological target: CSNK1E, P49674
# Experimental: as §1
# CSRP2, Q16527 = biological target: CSRP2, Q16527
# Experimental: as §1
# CXorf56, Q9H5V9 = biological target: CXorf56, Q9H5V9
# Experimental: as §1
# CYCS, P99999 = biological target: CYCS, P99999
# Experimental: as §1
# DDX49, Q9Y6V7 = biological target: DDX49, Q9Y6V7
# Experimental: as §1
# DERPC, P0CG12 = biological target: DERPC, P0CG12
# Experimental: as §1
# EDF1, O60869 = biological target: EDF1, O60869
# Experimental: as §1
# FAM107B, Q9H098 = biological target: FAM107B, Q9H098
# Experimental: as §1
# FAM32A, Q9Y421 = biological target: FAM32A, Q9Y421
# Experimental: as §1
# FAM50A, Q14320 = biological target: FAM50A, Q14320
# Experimental: as §1
# FBL, P22087 = biological target: FBL, P22087
# Experimental: as §1
# FKBP2, P26885 = biological target: FKBP2, P26885
# Experimental: as §1
# GABARAPL2, P60520 = biological target: GABARAPL2, P60520
# Experimental: as §1
# HNRNPA1, P09651 = biological target: HNRNPA1, P09651
# Experimental: as §1
# ISCU, Q9H1K1 = biological target: ISCU, Q9H1K1
# Experimental: as §1
# LENG1, Q96BZ8 = biological target: LENG1, Q96BZ8
# Experimental: as §1
# LSM14A, Q8ND56 = biological target: LSM14A, Q8ND56
# Experimental: as §1
# MAZ, P56270 = biological target: MAZ, P56270
# Experimental: as §1
# MORF4L2, Q15014 = biological target: MORF4L2, Q15014
# Experimental: as §1
# MPG, P29372 = biological target: MPG, P29372
# Experimental: as §1
# MRM2, Q9UI43 = biological target: MRM2, Q9UI43
# Experimental: as §1
# [1] = substrate: NONO, Q15233
# Experimental: as §1
# [2] = substrate: NOSIP, Q9Y314
# Experimental: as §1
# NUSAP1, Q9BXS6 = biological target: NUSAP1, Q9BXS6
# Experimental: as §1
# PCLAF, Q15004 = biological target: PCLAF, Q15004
# Experimental: as §1
# PIN4, Q9Y237 = biological target: PIN4, Q9Y237
# Experimental: as §1
# POLDIP3, Q9BY77 = biological target: POLDIP3, Q9BY77
# Experimental: as §1
# [3] = substrate: PPIF, P30405
# Experimental: as §1
# PSPC1, Q8WXF1 = biological target: PSPC1, Q8WXF1
# Experimental: as §1
# PSRC1, Q6PGN9 = biological target: PSRC1, Q6PGN9
# Experimental: as §1
# RAB34 = biological target: RAB34
# Experimental: as §1
# RBIS, Q8N0T1 = biological target: RBIS, Q8N0T1
# Experimental: as §1
# RBM33, Q96EV2 = biological target: RBM33, Q96EV2
# Experimental: as §1
# SAFB, Q15424 = biological target: SAFB, Q15424
# Experimental: as §1
# SAFB2, Q14151 = biological target: SAFB2, Q14151
# Experimental: as §1
# SERF2, P84101 = biological target: SERF2, P84101
# Experimental: as §1
# SFPQ, P23246 = biological target: SFPQ, P23246
# Experimental: as §1
# SMNDC1, O75940 = biological target: SMNDC1, O75940
# Experimental: as §1
# TACO1, Q9BSH4 = biological target: TACO1, Q9BSH4
# Experimental: as §1
# TMA7, Q9Y2S6 = biological target: TMA7, Q9Y2S6
# Experimental: as §1
# UTP11, Q9Y3A2 = biological target: UTP11, Q9Y3A2
# Experimental: as §1
# ZNF593, O00488 = biological target: ZNF593, O00488
# Experimental: as §1
# ZNF638, Q14966 = biological target: ZNF638, Q14966
# Experimental: as §1
# ZNF706, Q9Y5V0 = biological target: ZNF706, Q9Y5V0
# Experimental: as §1
# ZNF768, Q9H5H4 = biological target: ZNF768, Q9H5H4
# Experimental: as §1
binder,measurement,setting,value
MCVSVYADV [GPBP1],PRISMA enrichment of interactor (log2),"ALKBH2, Q6NS38",5.28
same,PRISMA enrichment of interactor (log2),"ALYREF, Q86V81",5.38
same,PRISMA enrichment of interactor (log2),"BOLA3, Q53S33",5.42
same,PRISMA enrichment of interactor (log2),"C12orf65, Q9H3J6",5.08
same,PRISMA enrichment of interactor (log2),"C19orf53, Q9UNZ5",8.02
same,PRISMA enrichment of interactor (log2),"C1orf131, Q8NDD1",4.07
same,PRISMA enrichment of interactor (log2),"CCDC137, Q6PK04",7.29
same,PRISMA enrichment of interactor (log2),"CCDC58, Q4VC31",4.17
same,PRISMA enrichment of interactor (log2),"CCDC59, Q9P031",5.48
same,PRISMA enrichment of interactor (log2),"CHCHD7, Q9BUK0",4.6
same,PRISMA enrichment of interactor (log2),"CHMP2B, Q9UQN3",6.82
same,PRISMA enrichment of interactor (log2),"CHTOP, Q9Y3Y2",5.33
same,PRISMA enrichment of interactor (log2),"CMC2, Q9NRP2",4.54
same,PRISMA enrichment of interactor (log2),"COA4, Q9NYJ1",6.45
same,PRISMA enrichment of interactor (log2),"CRIPT, Q9P021",5.2
same,PRISMA enrichment of interactor (log2),"CSNK1E, P49674",5.85
same,PRISMA enrichment of interactor (log2),"CSRP2, Q16527",6.07
same,PRISMA enrichment of interactor (log2),"CXorf56, Q9H5V9",6.8
same,PRISMA enrichment of interactor (log2),"CYCS, P99999",5.4
same,PRISMA enrichment of interactor (log2),"DDX49, Q9Y6V7",5.7
same,PRISMA enrichment of interactor (log2),"DERPC, P0CG12",6.33
same,PRISMA enrichment of interactor (log2),"EDF1, O60869",6.41
same,PRISMA enrichment of interactor (log2),"FAM107B, Q9H098",4.12
same,PRISMA enrichment of interactor (log2),"FAM32A, Q9Y421",4.59
same,PRISMA enrichment of interactor (log2),"FAM50A, Q14320",7.02
same,PRISMA enrichment of interactor (log2),"FBL, P22087",5.53
same,PRISMA enrichment of interactor (log2),"FKBP2, P26885",6.62
same,PRISMA enrichment of interactor (log2),"GABARAPL2, P60520",4.76
same,PRISMA enrichment of interactor (log2),"HNRNPA1, P09651",4.45
same,PRISMA enrichment of interactor (log2),"ISCU, Q9H1K1",5.35
same,PRISMA enrichment of interactor (log2),"LENG1, Q96BZ8",4.44
same,PRISMA enrichment of interactor (log2),"LSM14A, Q8ND56",4.56
same,PRISMA enrichment of interactor (log2),"MAZ, P56270",5.54 ± 0.82
same,PRISMA enrichment of interactor (log2),"MORF4L2, Q15014",6.19
same,PRISMA enrichment of interactor (log2),"MPG, P29372",6.21
same,PRISMA enrichment of interactor (log2),"MRM2, Q9UI43",4.44
same,PRISMA enrichment of interactor (log2),[1],5.37
same,PRISMA enrichment of interactor (log2),[2],7.14
same,PRISMA enrichment of interactor (log2),"NUSAP1, Q9BXS6",5.17
same,PRISMA enrichment of interactor (log2),"PCLAF, Q15004",5
same,PRISMA enrichment of interactor (log2),"PIN4, Q9Y237",5.04
same,PRISMA enrichment of interactor (log2),"POLDIP3, Q9BY77",5.72
same,PRISMA enrichment of interactor (log2),[3],5.97
same,PRISMA enrichment of interactor (log2),"PSPC1, Q8WXF1",5.71
same,PRISMA enrichment of interactor (log2),"PSRC1, Q6PGN9",5.65
same,PRISMA enrichment of interactor (log2),RAB34,4.12
same,PRISMA enrichment of interactor (log2),"RBIS, Q8N0T1",5.64
same,PRISMA enrichment of interactor (log2),"RBM33, Q96EV2",5.54
same,PRISMA enrichment of interactor (log2),"SAFB, Q15424",6.72
same,PRISMA enrichment of interactor (log2),"SAFB2, Q14151",5.71
same,PRISMA enrichment of interactor (log2),"SERF2, P84101",8.57
same,PRISMA enrichment of interactor (log2),"SFPQ, P23246",5.37
same,PRISMA enrichment of interactor (log2),"SMNDC1, O75940",7.04
same,PRISMA enrichment of interactor (log2),"TACO1, Q9BSH4",4.54
same,PRISMA enrichment of interactor (log2),"TMA7, Q9Y2S6",5.44
same,PRISMA enrichment of interactor (log2),"UTP11, Q9Y3A2",4.44
same,PRISMA enrichment of interactor (log2),"ZNF593, O00488",5.24
same,PRISMA enrichment of interactor (log2),"ZNF638, Q14966",6.43
same,PRISMA enrichment of interactor (log2),"ZNF706, Q9Y5V0",5.8
same,PRISMA enrichment of interactor (log2),"ZNF768, Q9H5H4",6.31

# Taken from the results shown for reference:
binder,measurement,setting,value
MCVSVYADV [GPBP1],PRISMA enrichment of interactor (log2),"C12orf65, Q9H3J6",5.08
same,PRISMA enrichment of interactor (log2),"C19orf53, Q9UNZ5",8.02
same,PRISMA enrichment of interactor (log2),"C1orf131, Q8NDD1",4.07
